In patent publication US7265132B2, “Compounds useful as reversible inhibitors of cysteine proteases” (Boehringer Ingelheim Pharmaceuticals Inc., priority 1999, dated 2007):
Some entries share one result that the patent states for a list of compounds. At least one structure is not confirmed: it was looked up by name or label, or the drawing left a doubt.

Chains of the proteins cited; added tags and fusions are not shown. Residues count along the entry.
UniProt P25774, 115-331: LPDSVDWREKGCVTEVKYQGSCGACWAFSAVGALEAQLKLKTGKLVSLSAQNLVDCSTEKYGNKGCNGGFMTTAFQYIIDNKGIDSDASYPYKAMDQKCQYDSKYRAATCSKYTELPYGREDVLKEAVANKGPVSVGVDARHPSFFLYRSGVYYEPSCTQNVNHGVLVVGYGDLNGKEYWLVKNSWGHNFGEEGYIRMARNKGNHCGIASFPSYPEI

Target: T1, Cathepsin S (Homo sapiens, UniProt P25774)
T1 construct: endogenous in cells
Test: Inhibition of Cathepsin S in a cell based assay (Riese et al., Immunity 1996)
Details: compounds of formulas (I) and (II)

N#CC1(NC(=O)[C@H](CC2CCCCC2)NC(=O)N2CCOCC2)CCN(Cc2ccccc2)C1.O (stereo partly shown) [Example 66, Morpholine-4-carboxylic acid [1-(1-benzyl-3-cyano-1-oxy-pyrrolidin-3-ylcarbamoyl)-2-cyclohexyl-ethyl]-amide]
concentration at which potent inhibition of Cathepsin S in a cell based assay was demonstrated: ≤ 15 µM
